# In the supplement of paper PMC12819154, “High-throughput peptide-centric local stability assay extends protein–ligand identification to membrane proteins, tissues and bacteria” (Nature Structural & Molecular Biology, 2025):
# Sequences of proteins named here, by UniProt entry; tags and fusion partners are left off. A change or cut given only in a name is not applied to a line headed by its entry.
# UniProt Q9UNZ2: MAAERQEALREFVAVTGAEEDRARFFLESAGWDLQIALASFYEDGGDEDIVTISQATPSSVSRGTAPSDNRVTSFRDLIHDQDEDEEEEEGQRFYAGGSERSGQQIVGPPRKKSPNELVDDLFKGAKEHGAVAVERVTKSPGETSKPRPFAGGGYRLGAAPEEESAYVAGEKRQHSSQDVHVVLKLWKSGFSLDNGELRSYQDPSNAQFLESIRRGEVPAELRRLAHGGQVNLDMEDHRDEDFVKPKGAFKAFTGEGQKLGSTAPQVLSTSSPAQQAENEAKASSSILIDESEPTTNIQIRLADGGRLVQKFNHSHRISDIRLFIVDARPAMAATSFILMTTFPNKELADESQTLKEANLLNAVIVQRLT
# UniProt Q9UPW0: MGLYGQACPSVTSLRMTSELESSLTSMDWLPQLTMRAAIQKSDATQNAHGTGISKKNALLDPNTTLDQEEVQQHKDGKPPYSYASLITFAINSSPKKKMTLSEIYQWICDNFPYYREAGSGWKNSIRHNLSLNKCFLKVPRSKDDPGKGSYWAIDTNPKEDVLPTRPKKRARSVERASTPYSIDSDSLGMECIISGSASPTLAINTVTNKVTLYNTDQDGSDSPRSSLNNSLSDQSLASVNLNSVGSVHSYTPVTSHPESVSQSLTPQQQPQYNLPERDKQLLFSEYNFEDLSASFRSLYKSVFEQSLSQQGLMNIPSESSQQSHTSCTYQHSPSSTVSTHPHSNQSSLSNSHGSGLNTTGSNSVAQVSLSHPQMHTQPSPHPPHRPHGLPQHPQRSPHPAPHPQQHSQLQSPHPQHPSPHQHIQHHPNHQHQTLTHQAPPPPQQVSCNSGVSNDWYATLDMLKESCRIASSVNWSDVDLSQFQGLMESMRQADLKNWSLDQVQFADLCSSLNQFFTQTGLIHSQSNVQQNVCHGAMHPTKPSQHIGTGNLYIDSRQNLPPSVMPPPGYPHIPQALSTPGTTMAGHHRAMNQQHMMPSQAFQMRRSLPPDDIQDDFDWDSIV
# UniProt Q9UKT5: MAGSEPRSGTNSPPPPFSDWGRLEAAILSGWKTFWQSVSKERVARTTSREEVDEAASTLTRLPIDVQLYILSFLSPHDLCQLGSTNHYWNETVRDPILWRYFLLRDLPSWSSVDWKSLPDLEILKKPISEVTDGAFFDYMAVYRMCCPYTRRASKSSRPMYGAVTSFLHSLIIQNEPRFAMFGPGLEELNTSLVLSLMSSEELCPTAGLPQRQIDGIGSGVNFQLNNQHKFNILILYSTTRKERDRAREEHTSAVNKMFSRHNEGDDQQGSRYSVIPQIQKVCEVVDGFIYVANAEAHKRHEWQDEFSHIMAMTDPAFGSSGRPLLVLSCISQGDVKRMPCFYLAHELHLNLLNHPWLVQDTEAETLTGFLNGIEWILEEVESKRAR
# UniProt Q9UK99: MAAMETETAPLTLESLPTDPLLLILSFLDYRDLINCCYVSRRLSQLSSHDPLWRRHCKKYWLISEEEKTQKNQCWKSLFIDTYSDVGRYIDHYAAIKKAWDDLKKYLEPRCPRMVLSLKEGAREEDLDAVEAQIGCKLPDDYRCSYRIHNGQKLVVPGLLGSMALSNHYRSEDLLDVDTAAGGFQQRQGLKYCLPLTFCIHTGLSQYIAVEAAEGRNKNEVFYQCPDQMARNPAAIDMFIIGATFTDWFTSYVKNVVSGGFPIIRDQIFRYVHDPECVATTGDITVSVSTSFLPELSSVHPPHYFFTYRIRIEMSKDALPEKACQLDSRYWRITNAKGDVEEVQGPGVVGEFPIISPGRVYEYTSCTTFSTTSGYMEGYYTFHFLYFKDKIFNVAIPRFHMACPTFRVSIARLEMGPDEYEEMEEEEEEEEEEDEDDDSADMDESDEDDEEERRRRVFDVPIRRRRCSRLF
# UniProt Q9Y376: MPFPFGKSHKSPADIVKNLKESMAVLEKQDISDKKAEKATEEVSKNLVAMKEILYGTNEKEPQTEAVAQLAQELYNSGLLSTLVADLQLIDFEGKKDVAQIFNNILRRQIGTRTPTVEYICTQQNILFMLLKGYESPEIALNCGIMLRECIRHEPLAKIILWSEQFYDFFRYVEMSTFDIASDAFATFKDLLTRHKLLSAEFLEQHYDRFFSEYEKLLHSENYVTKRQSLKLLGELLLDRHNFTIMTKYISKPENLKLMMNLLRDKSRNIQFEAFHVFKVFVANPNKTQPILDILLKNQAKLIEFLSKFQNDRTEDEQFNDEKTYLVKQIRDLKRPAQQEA
# UniProt Q9Y3B1: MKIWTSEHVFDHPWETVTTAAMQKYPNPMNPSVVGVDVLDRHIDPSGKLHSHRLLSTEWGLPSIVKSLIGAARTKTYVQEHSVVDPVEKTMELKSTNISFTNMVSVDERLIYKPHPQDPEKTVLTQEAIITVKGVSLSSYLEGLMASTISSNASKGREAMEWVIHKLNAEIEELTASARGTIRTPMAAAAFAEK
# UniProt Q9ULV3: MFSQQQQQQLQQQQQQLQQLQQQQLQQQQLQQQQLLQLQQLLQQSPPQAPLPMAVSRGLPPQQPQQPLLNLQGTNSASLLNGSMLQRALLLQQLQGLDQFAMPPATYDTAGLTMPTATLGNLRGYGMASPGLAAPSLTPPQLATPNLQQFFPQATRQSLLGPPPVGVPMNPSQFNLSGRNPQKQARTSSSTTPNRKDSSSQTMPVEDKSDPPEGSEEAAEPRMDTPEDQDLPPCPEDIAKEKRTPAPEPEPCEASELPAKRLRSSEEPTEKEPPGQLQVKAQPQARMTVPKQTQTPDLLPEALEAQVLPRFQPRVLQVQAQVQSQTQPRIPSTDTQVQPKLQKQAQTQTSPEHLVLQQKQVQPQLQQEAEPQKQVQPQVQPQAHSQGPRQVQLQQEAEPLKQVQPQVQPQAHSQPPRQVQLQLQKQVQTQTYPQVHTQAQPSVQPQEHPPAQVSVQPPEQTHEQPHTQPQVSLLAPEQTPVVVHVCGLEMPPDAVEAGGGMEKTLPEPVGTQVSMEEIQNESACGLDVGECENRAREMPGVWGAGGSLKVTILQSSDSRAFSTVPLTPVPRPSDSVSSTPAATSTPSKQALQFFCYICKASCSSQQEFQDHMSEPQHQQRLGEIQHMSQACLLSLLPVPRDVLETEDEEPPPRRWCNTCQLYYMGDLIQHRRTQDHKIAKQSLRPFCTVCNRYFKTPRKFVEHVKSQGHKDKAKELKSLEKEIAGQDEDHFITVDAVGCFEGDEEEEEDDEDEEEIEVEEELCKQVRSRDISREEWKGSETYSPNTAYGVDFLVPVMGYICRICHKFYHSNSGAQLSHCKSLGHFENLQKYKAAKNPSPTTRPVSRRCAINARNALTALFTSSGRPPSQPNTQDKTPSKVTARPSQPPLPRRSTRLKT
# UniProt Q9UP83: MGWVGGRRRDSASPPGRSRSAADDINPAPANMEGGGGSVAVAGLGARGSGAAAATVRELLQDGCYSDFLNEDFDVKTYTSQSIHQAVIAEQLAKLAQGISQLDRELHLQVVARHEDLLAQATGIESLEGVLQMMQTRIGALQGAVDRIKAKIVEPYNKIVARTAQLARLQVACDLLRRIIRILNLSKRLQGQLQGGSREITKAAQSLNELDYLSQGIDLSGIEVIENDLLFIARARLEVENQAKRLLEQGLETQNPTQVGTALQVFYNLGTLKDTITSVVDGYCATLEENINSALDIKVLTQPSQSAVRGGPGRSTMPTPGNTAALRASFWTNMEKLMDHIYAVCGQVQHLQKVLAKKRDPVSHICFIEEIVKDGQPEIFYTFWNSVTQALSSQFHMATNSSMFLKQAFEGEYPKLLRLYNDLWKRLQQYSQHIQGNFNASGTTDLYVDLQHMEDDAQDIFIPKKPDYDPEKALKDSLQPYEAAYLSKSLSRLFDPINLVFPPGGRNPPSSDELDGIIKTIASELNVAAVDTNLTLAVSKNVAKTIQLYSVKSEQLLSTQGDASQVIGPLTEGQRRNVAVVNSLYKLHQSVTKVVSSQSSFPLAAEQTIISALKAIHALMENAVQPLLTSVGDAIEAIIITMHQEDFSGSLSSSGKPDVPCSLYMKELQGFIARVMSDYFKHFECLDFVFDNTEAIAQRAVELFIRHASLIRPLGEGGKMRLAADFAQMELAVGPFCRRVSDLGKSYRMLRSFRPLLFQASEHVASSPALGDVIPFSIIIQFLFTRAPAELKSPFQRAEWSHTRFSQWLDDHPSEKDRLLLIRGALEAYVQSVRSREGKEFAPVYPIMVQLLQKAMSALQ
# UniProt Q9Y2X7: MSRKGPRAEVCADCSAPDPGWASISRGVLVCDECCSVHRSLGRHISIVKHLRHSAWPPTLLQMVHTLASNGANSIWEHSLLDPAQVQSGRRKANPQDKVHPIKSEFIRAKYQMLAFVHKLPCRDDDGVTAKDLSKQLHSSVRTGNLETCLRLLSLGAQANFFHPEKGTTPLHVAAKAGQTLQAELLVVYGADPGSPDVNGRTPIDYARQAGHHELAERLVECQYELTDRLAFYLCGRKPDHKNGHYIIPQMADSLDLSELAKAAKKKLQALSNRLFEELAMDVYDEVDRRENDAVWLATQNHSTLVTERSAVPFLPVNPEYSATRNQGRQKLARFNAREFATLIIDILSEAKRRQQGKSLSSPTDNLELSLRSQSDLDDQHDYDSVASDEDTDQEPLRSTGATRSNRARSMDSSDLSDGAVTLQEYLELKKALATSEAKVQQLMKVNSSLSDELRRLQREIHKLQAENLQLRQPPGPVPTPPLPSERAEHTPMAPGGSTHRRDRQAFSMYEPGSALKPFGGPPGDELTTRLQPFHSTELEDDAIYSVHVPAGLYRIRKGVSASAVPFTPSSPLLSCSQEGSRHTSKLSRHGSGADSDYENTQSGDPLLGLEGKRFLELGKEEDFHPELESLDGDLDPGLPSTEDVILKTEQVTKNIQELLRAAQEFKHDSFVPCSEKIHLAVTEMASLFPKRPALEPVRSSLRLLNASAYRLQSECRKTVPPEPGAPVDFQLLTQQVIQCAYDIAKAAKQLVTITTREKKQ
# The list shows a part of the results. Most values lie at the level of the controls, where differences are scatter.
# Compound: CN[C@@H]1C[C@H]2O[C@@](C)([C@@H]1OC)n1c3ccccc3c3c4c(c5c6ccccc6n2c5c31)C(=O)NC4 [staurosporine]
# Experiment: log2 fold change of tryptic peptide abundance, ligand vs vehicle (limited proteolysis) (log2 ratio); higher = more trypsin-susceptible (destabilized)
# Conditions: ligand concentration: 20 uM; sample: K562 cleared lysate; digestion: 4 min, 22 C (HT-PELSA RT4min, Orbitrap Astral)
row,Target,log2 fold change
1,"NSFL1C (peptide sequence: FYAGGSER, peptide start residue: 94) (UniProt Q9UNZ2)",-0.105
2,"MACF1 (peptide sequence: LRLEEEVEACKAR, peptide start residue: 1016) (UniProt Q9UPN3)",-1.17
3,"FOXJ3 (peptide sequence: HNLSLNKCFLK, peptide start residue: 128) (UniProt Q9UPW0)",-1.29
4,"FBXO4 (peptide sequence: QIDGIGSGVNFQLNNQHK, peptide start residue: 213) (UniProt Q9UKT5)",-0.0764
5,"NUDT5 (peptide sequence: TTYMDPTGK, peptide start residue: 34) (UniProt Q9UKK9)",0.0876
6,"FBXO3 (peptide sequence: LVVPGLLGSMALSNHYR, peptide start residue: 154) (UniProt Q9UK99)",-0.0795
7,"CAB39 (peptide sequence: NLKESMAVLEKQDISDK, peptide start residue: 18) (UniProt Q9Y376)",0.678
8,"UniProt Q9Y3B1 (peptide sequence: TPMAAAAFAEK, peptide start residue: 184)",-0.231
9,"CIZ1 (peptide sequence: DISREEWK, peptide start residue: 770) (UniProt Q9ULV3)",-0.361
10,"COG5 (peptide sequence: KPDYDPEK, peptide start residue: 465) (UniProt Q9UP83)",0.407
11,"GIT1 (peptide sequence: LQAENLQLR, peptide start residue: 464) (UniProt Q9Y2X7)",-0.141

# Reformatted bar-delimited: part of the list above.
row | Target | log2 fold change
4 | FBXO4 (peptide sequence: QIDGIGSGVNFQLNNQHK, peptide start residue: 213) (UniProt Q9UKT5) | -0.0764
5 | NUDT5 (peptide sequence: TTYMDPTGK, peptide start residue: 34) (UniProt Q9UKK9) | 0.0876
